Assay results: PubChem BioAssay AID2417 (National Center for Advancing Translational Sciences (NCATS), 2010)
Screen size: about 140,000 compounds; about 4,300 (3.1%) were called active. Inconclusive means that the source gave no clear call. Such entries were picked first, then a sample of the others.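 Rule for the calls: active = readout at or below -70, meaning at least 70% loss of cells showing the perinucleolar compartment, a nuclear body marking cancer cells; inconclusive = readout between -30 and a set limit; inactive = the rest.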

Assay: High Content Assay for Compounds that inhibit the Assembly of the Perinucleolar Compartment;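 note: plate controls were DMSO wells for no effect and camptothecin positive control wells for full effect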
Conditions: PC3M PTB-GFP, PNC prevalence imaging, 16 h; at 10 µM; hits give low values
Procedure, shortened: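 PC3M cells stably expressing PTB-GFP, 750–1000 cells/well, treated 16 h at 37 °C with compound (23 nl of library stock), in duplicate. After paraformaldehyde fixation and Hoechst stain, imaged at 20x; PNC prevalence scored by image analysis.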

SMILES	activity change (PNC), negative = inhibition
C/C(CC(=O)NC1CCCC1)=N\NC(=O)Cc1csc(N)n1	inconclusive: -38.8%
O=C(CN(Cc1ccco1)C(=O)c1cc(=O)[nH]c2ccccc12)Nc1ccccc1Br	inconclusive: -35.6%
COCc1cc(=O)[nH]c(Nc2nc3ccccc3o2)n1	inactive: -17.2%
CCCCCNC1=CC(=O)CC(c2ccccc2)C1 (stereo not given)	active: -83.5%
Cc1cc(N2CCCCC2)n2ncc(-c3ccc(Cl)cc3)c2n1	inconclusive: -68.9%
Cc1cccc(C)c1NC(=O)N1CCN(c2nc3ccccc3s2)CC1	inconclusive: -53.9%
O=C(NCc1cccnc1)c1cccc(C(F)(F)F)c1	active: -94.1%
COc1cc(S(=O)(=O)n2c(C)nc3ccccc32)ccc1F	inconclusive: -63.5%
O=C(Nc1ccccc1Cl)c1cccc(COc2cc(Cl)ccc2Cl)c1	inactive: 17.1%
Nc1scc2c(C(=O)N/N=C/c3ccc(Cl)cc3)nn(-c3ccccc3)c(=O)c12	inconclusive: -70.9%
CN(C)c1ccc(/C=N/NC(=O)CN2CCN(c3ccc(F)cc3)CC2)cc1	inconclusive: -44%
CCOC(=O)Nc1nc(-c2ccc(F)cc2F)cs1	inconclusive: -57.8%
NC(=O)C1CCN(C(=O)CN2CCCc3ccccc32)CC1	inactive: -2.1%
Cc1cc(C)n(C(=O)CCNC(=O)c2ccccc2Br)n1	inactive: 16.2%
COCCCn1c(SCC(=O)NC(C)(C)C)nnc1-c1ccccc1	inconclusive: -31%
COCc1cc(C)nc2sc(C(=O)Nc3nccs3)c(N)c12	inconclusive: -61.3%
NS(=O)(=O)c1ccc(NCc2ccccc2OCc2ccc(F)cc2)cc1	inconclusive: -49.6%
Fc1ccc2nc(-c3ccccc3)nc(SCc3nnc(-c4ccccc4)o3)c2c1	inconclusive: -43.2%
CCC(=O)Nc1sc(C(=O)OC)c(C)c1C(=O)OC	inconclusive: -66.2%
O=C(COC(=O)C1(c2ccccc2F)CCCC1)Nc1ncc(C(F)(F)F)cc1Cl	active: -109%
COc1ccc(/C(O)=C2/C(=O)C(=O)N(CC3CCCO3)C2c2cccc(OC)c2)cc1 (stereo not given)	inactive: 3.43%
CCOC(=O)N1CCN(C(=O)c2ccc(N3C(=O)CCC3=O)cc2)CC1	active: -89.2%
O=S(=O)(NCCc1ccccc1F)c1cccc(S(=O)(=O)N2CCOCC2)c1	inconclusive: -31.2%

SMILES	activity change (PNC), negative = inhibition
COc1cc2c(cc1OC)C(c1ccc(-c3ccc(Cl)c(Cl)c3)o1)=NCC2	inconclusive: -60.2%
COc1ccccc1CNc1ccc(N2CCCCC2)cc1	inconclusive: -52.1%
Cc1ccc(S(=O)(=O)n2cnc3cc([N+](=O)[O-])ccc32)cc1C	inactive: -0.758%
CCCN(CCC)S(=O)(=O)c1ccc(C(=O)N2CCC(=O)c3ccccc32)cc1	inactive: 24%
CC(C)CN1C(=O)NC(NC(=O)c2cccs2)(C(F)(F)F)C1=O (stereo not given)	inconclusive: -32.4%
CCOc1ccc(OCC)c(NC(=O)CCCN2C(=S)NC(C)(C)CC2C)c1 (stereo not given)	inactive: -29.9%
O=C(NC(Cc1c[nH]c2ccccc12)C(=O)O)c1ccccc1 (stereo not given)	inconclusive: -41.4%
COc1ccc(-n2cc(-c3ccccc3)nc2SC)cc1	active: -84.9%
O=c1[nH]c(SCc2nc3c(cnn3-c3ccccc3)c(=O)[nH]2)nc2ccccc12	active: -108%
COc1ccc(-c2nnc(SCC(=O)c3cccs3)n2-c2ccc(Cl)cc2)cc1	inconclusive: -35.7%
O=C(NCc1ccccc1)C1CCN(S(=O)(=O)N2CCCCCC2)CC1	inconclusive: -35.8%
COc1cc(NC(=O)c2cc(-c3ccco3)on2)c(OC)cc1Cl	inactive: -26.4%
Cc1oc(-c2ccc(Cl)cc2)nc1CN1CCCC(C(=O)NCc2cccnc2)C1 (stereo not given)	inconclusive: -39.2%
CCCCCCn1c(CN2CCN(C(=O)c3ccco3)CC2)nc2c1c(=O)n(C)c(=O)n2C	active: -122%
COc1ccc(-n2c(COc3cccc(C)c3)nnc2SCC(=O)NCc2ccco2)cc1	inconclusive: -36.5%
O=C(Nc1ccc2c(c1)CCC2)c1ccc(Br)o1	inconclusive: -51%
CC(=O)[C@@H]1[C@@H](C(=O)c2ccc(C)cc2)[C@]2(C(=O)Nc3ccccc32)[C@H]2C=Cc3cc(F)ccc3N12	inactive: 28.1%
CC1=Nc2ccccc2NC(=O)C1Sc1nnc(C)s1 (stereo not given)	inactive: 158%
c1ccn2c(SCc3ccc4c(c3)OCO4)nnc2c1	inconclusive: -49.3%
CC(=O)/C(=N/Nc1ccccc1)Sc1nnc(C(O)c2ccccc2)n1-c1ccccc1 (stereo not given)	inactive: 18.1%
CCOC(=O)c1cc(-c2ccco2)nc2c1c(C)nn2CCC#N	inconclusive: -44.4%
COC(=O)c1ccc(Oc2nc3c(c(=O)n(C)c(=O)n3C)n2CCC(C)C)cc1	inactive: 38.1%
